Experimental data published in US11603373B2, “TDO2 and IDO1 inhibitors” (Genentech, Inc., priority 2017, dated 2023).

Sequences of proteins named here, by UniProt entry; tags and fusion partners are left off.
UniProt P48775, whole entry: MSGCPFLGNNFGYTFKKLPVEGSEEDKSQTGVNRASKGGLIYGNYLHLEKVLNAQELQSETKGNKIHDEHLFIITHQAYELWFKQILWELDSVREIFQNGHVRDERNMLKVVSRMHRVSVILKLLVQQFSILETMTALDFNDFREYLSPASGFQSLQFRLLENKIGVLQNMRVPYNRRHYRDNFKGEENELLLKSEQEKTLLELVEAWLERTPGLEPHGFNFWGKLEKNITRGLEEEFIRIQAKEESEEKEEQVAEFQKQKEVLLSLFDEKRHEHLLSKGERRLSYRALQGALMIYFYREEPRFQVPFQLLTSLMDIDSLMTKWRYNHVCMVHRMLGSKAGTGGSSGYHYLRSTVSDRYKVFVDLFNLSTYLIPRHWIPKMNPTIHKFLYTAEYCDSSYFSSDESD
UniProt P14902, whole entry: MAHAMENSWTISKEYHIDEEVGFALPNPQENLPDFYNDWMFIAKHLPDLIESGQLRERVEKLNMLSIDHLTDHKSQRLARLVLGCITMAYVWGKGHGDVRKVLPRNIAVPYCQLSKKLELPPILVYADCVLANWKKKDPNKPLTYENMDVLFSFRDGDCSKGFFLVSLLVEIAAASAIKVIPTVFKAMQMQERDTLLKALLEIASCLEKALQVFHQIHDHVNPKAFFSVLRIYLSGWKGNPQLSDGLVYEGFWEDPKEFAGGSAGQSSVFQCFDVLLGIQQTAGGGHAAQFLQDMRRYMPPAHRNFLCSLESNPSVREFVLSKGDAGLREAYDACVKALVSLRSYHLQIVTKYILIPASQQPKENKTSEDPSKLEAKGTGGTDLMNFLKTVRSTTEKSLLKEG

Assays:
[1] = target: TDO2 (SW48 cells, high TDO expressing cells) (Homo sapiens, UniProt P48775); assay: NFK GreenScreen cell assay, inhibition of TDO in SW48 cells; conditions: read-out: TDO2 Cell Fluor EC50
Source text: (§1) The NFK GreenScreen™ (NTRC, Netherlands) uses a specific chemical probe that binds to N-Formylkynurenine (NFK), a product of tryptophan catabolism facilitated by IDO or TDO and causes fluorescence at 510 nm when excited at 410 nm. The assay is used to assess compound inhibition of TDO and IDO leading to decreased levels of NFK in SW48 cells (high TDO expressing cells) and to determine whether compounds are selective against A172+IFNg cells (high IDO expressing cells) or are dual inhibitors in cells. The assay is multiplexed with Cell Titer-Glo® (Promega) to determine if compounds are cytotoxic. Briefly, SW48 or A172 cells are harvested in growth media, RPMI 1640 with 10% FBS, 2 mM L-glutamine, and 1× pen/strep. Cells are re-suspended in assay media, tryptophan-free RPMI 1640 supplemented with 2% dialyzed FBS, 2 mM L-glutamine, and 1× pen/strep. Cells are counted on a Vi-Cell (Beckman Coulter). SW48 cells are diluted to 1×10^6 cells/ml in assay media. […] Plates are sealed and incubated at 37° C., 5% CO2 for 5 hours, then read on a PHERAstar® (BMG labtech). Data are analyzed by normalizing to DMSO and high inhibitor controls. After the plates have been read for NFK green, 25 ul of Cell Titer-Glo® (Promega) are added to each well, incubated for 15 minutes at room temperature, and read on the Envision (Perkin Elmer). Cell Titer-Glo data are analyzed by normalizing to the DMSO controls. […]

[2] = target: IDO1 (A172+IFNg cells, high IDO expressing cells) (Homo sapiens, UniProt P14902); assay: NFK GreenScreen cell assay, inhibition of IDO in A172+IFNg cells; conditions: read-out: IDO cell Fluor EC50
Source text: as §1

EC50 [1]: 100 nM | EC50 [2]: 140 nM
SMILES: O=C(C1CC1)N1CCC2(CC[C@@H]([C@H]3c4ccccc4-c4cncn43)[C@H]2O)CC1 (single isomer, unassigned)

Structures were worked out from names or drawings and are uncertain.
